Earlier results as cited in patent US10130637B2, “Inhibition of histone methyltransferase for cardiac reprogramming” (Duke University, priority 2012, dated 2018).
For at least one compound, name, drawing or mass did not settle the structure.

Tested on: rheumatoid arthritis models
Conditions: administered orally; cited from earlier work

SMILES | efficacy in rheumatoid arthritis models
N#CC[C@H](C1CCCC1)n1cc(-c2ncnc3[nH]ccc23)cn1 [INCB018424, Ruxolitinib] | effective
CCS(=O)(=O)N1CC(CC#N)(n2cc(-c3ncnc4[nH]ccc34)cn2)C1 [INCB028050, baricitinib] | effective
